Results published in patent publication US20260042849A1, “PROTEASE-CLEAVABLE MOIETIES AND METHODS OF USE THEREOF” (CytomX Therapeutics, Inc., priority 2022, published 2026).

Test system: H292 (human lung cancer-derived cell line) subcutaneous xenograft tumors
Assay: Intra-tumoral activation assay in H292 xenograft tumors
Format: in vivo, nu/nu mice
Conditions: tumors collected 7 days after dosing

Row | Substance | intra-tumoral activation (FIG. 2B)
1 | APMGLKH [CM 7046, also tested as internally quenched peptide probe] | cleaved by proteases present in the tumor resulting in activation of the antibody
2 | ISSGLLSGRSDNH [CM 2001, reference compound] | cleaved by proteases present in the tumor resulting in activation of the antibody
